Where a chain is given by its changes, count along the chain named. Numbers in names are those of the source. Results are given in words; binding and its absence hold for the method and conditions named. In cells and extracts the contact can be indirect. Some entries that bind do so weakly or less than the wild type.
B1: N1Redβ (20–261), Strep-tag II tagged, purified (domain or fragment, λ phage, UniProt P03698 20-261, looked up)
chain: SVDPQELITTLRQTAFKGDASDAQFIALLIVANQYGLNPWTKEIYAFPDKQNGIVPVVGVDGWSRIINENQQFDGMDFEQDNESCTCRIYRKDRNHPICVTEWMDECRREPFKTREGREITGPWQSHPKRMLRHKAMIQCARLAFGFAGIYDKDEAERIVENTAYTAERQPERDITPVNDETMQEINTLLIALDKTWDDDLLPLCSQIFRRDIRASSELTQAEAVKALGFLKQKAAEQKVAA
notes: Redβ of λ phage, residues 20-261 (N-terminal truncation N1); also called N1 deletion; not shown: Strep-tag II, C-terminal, kept
B2: RedβQ252A (protein, UniProt P03698 1-261)
chain: MSTALATLAGKLAERVGMDSVDPQELITTLRQTAFKGDASDAQFIALLIVANQYGLNPWTKEIYAFPDKQNGIVPVVGVDGWSRIINENQQFDGMDFEQDNESCTCRIYRKDRNHPICVTEWMDECRREPFKTREGREITGPWQSHPKRMLRHKAMIQCARLAFGFAGIYDKDEAERIVENTAYTAERQPERDITPVNDETMQEINTLLIALDKTWDDDLLPLCSQIFRRDIRASSELTQAEAVKALGFLKAKAAEQKVAA
B3: Redβ Q252A, E256A (protein, UniProt P03698 1-261)
chain: B2 chain with E256A
B4: Redβ E191A, Q240A, Q252A, E256A, K258A (protein, UniProt P03698 1-261)
chain: B2 chain with E191A, Q240A, E256A, K258A
B5: RedβE191A (protein, UniProt P03698 1-261)
chain: B2 chain with E191A, A252Q
B6: Redβ E191A, Q252A, E256A (protein, UniProt P03698 1-261)
chain: B2 chain with E191A, E256A
B7: RedβE256A (protein, UniProt P03698 1-261)
chain: B2 chain with A252Q, E256A
B8: RedβK258A (protein, UniProt P03698 1-261)
chain: B2 chain with A252Q, K258A
B9: RedβQ240A (protein, UniProt P03698 1-261)
chain: B2 chain with Q240A, A252Q
B10: C3Redβ (1–185), Strep-tag II tagged, purified (domain or fragment, λ phage, UniProt P03698 1-185, looked up)
chain: MSTALATLAGKLAERVGMDSVDPQELITTLRQTAFKGDASDAQFIALLIVANQYGLNPWTKEIYAFPDKQNGIVPVVGVDGWSRIINENQQFDGMDFEQDNESCTCRIYRKDRNHPICVTEWMDECRREPFKTREGREITGPWQSHPKRMLRHKAMIQCARLAFGFAGIYDKDEAERIVENTAYT
notes: Redβ of λ phage, residues 1-185 (C-terminal truncation C3); also called C3 deletion; C3-truncated Redβ; not shown: Strep-tag II, C-terminal, kept
B11: wt Redβ, Strep-tag II tagged, purified (natural protein, λ phage, UniProt P03698 1-261, looked up)
chain: B2 chain with A252Q
notes: Redβ, single strand annealing protein of λ phage; the ORF cloned into pASK-IBA2; 261 residues by the printed limits of the truncations; also called wild type Redβ; not shown: Strep-tag II, C-terminal, kept

target: T1, Redα expressed from pSC101 Redγβα (λ phage) (UniProt P03697); test: co-IP; lysates of E. coli GB2005 expressing Redγβα (wt or mutant Redβ); anti-Redα serum on protein-G sepharose; IP buffer 50 mM Tris-Cl pH 8.0, 150 mM NaCl, 10% glycerol, 1% triton X-100; room temperature, 20 minutes or 1 hour; blot probed with anti-Redβ antibody; details: not given
T1 sequence: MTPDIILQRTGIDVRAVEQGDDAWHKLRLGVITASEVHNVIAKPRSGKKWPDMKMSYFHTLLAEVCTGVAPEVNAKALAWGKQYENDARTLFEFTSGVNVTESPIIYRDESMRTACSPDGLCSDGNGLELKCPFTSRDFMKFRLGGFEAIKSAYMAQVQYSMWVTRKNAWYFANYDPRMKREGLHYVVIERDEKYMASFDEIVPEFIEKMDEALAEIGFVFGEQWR

Molecule	binding
B1	binds
B2	binds
B3	binds
B4	binds
B5	binds
B6	binds
B7	binds
B8	binds
B9	binds
B10	binds

target: T1, Redα expressed from pSC101 Redγβα (λ phage); test: as above; details: not given; remark: another data set of the same source

Molecule	binding
C2Redβ (1–217) (from UniProt P03698 1-217) (domain or fragment)	binds
C1Redβ (1–237) (from UniProt P03698 1-237) (domain or fragment)	binds
N2Redβ (38–261) (from UniProt P03698 38-261) (domain or fragment)	binds

Target: T2, Redα expressed from pSC101 Redγβα (λ phage), P03697
T2 chain: T1 sequence
Test: as above
Details: remark: other sources report otherwise

Molecule	binding
B11	binds
